{"sequences": {"note": "Amino acid sequences for entries named in this document (tags omitted). A change or cut given only in a name is not applied to a line headed by its entry.", "UniProt Q9H1E5": "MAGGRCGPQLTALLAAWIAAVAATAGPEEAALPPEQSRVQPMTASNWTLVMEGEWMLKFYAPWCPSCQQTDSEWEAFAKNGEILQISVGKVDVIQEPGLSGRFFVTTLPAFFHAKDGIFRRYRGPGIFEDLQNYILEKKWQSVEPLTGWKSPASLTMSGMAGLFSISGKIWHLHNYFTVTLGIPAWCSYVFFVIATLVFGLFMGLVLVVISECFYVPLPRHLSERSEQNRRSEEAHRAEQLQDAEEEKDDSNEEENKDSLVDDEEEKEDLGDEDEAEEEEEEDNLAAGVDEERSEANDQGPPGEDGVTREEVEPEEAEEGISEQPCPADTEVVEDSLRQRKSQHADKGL"}, "source": "paper PMC10264389", "molecules": {"B1": {"name": "HALO-NESPRIN3α (protein, UniProt Q4FZC9 1-975)", "chain": "MTQQPQEDFERSVEDAQAWMKVIQEQLQVNDNTKGPRAALEARLRETEKICQLESEGMVKVELVLRAAEALLATCQEGQKPEILARLRDIKSQWEETVTYMTHCHSRIEWVWLHWSEYLLAQDEFYRWFQKMVVALEPPVELQLGLKEKQWQLSHAQVLLHNVDNQAVLLDRLLEEAGSLFSRIGDPSVDEDAQKRMKAEYDAVKARAQRRVDLLAQVAQDHEQYREDVNEFQLWLKAVVEKVHSCLGRNCKLATELRLSTLQDIAKDFPRGEESLKRLEEQAVGVIQNTSPLGAEKISGELEEMRGVLEKLRVLWKEEEGRLRGLLQSRGDCEQQIQQLEAELGDFKKSLQRLAQEGLEPTVKTATEDELVAQWRLFSGTRAALASEEPRVDRLQTQLKKLVTFPDLQSLSDSVVATIQEYQSMKGKNTRLHNATRAELWQRFQRPLNDLQLWKALAQRLLDITASLPDLASIHTFLPQIEAALTESSRLKEQLAMLQLKTDLLGSIFGQERAATLLEQVTSSVRDRDLLHNSLLQRKSKLQSLLVQHKDFGVAFDPLNRKLLDLQARIQAEKGLPRDLPGKQVQLLRLQGLQEEGLDLGTQIEAVRPLAHGNSKHQQKVDQISCDQQALQRSLEDLVDRCQQNVREHCTFSHRLSELQLWITMATQTLESHQGDVRLWDAESQEAGLETLLSEIPEKEVQVSLLQALGQLVMKKSSPEGATMVQEELRKLMESWQALRLLEENMLSLMRNQQLQRTEVDTGKKQVFTNNIPKAGFLINPQDPIPRRQHGANPLEGHDLPEDHPQLLRDFEQWLQAENSKLRRIITMRVATAKDLRTREVKLQELEARIPEGQHLFENLLRLRPARDPSNELEDLRYRWMLYKSKLKDSGHLLTESSPGELTAFQKSRRQKRWSPCSLLQKACRVALPLQLLLLLFLLLLFLLPAGEEERSCALANNFARSFALMLRYNGPPPT"}}, "key": {"HALO-NESPRIN3α": {"target": "T1, HALO-NESPRIN3α (UniProt Q4FZC9)", "T1 sequence": "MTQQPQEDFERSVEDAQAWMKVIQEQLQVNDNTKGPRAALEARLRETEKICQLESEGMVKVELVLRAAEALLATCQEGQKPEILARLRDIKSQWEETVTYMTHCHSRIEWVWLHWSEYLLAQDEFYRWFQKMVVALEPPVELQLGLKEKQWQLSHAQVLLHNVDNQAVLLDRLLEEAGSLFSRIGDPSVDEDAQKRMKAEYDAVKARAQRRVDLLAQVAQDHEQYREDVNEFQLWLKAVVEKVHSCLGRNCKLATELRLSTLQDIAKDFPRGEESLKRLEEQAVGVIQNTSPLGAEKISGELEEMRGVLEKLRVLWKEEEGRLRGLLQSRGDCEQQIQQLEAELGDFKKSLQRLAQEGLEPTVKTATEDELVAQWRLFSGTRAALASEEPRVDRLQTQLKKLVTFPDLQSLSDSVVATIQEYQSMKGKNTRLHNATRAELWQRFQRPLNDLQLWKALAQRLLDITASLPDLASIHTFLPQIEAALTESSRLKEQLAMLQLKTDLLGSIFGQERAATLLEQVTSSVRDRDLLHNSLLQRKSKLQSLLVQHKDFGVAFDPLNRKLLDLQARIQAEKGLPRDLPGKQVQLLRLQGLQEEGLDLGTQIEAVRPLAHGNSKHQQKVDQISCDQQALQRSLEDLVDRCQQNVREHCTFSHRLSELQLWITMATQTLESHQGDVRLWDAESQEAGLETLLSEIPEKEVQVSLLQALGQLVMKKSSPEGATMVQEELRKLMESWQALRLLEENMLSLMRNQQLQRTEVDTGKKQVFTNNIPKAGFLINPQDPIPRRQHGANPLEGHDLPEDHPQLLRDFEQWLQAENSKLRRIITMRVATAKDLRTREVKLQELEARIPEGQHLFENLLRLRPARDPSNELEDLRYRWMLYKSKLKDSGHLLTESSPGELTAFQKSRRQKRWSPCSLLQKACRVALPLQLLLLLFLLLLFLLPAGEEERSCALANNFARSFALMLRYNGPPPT", "experiment": "co-IP; HEK293 co-transfected with HALO-NESPRIN3α, GFP-SUN1 and TMX4-V5 or TMX4C67A-V5; HALO-NESPRIN3α isolated with HALO-Trap agarose beads, 2 h at 4 °C; non-reducing and reducing gels; western blot with anti-V5 and anti-HALO"}, "TMX4_(C67A)-V5": {"target": "TMX4_(C67A)-V5 (UniProt Q9H1E5)", "experiment": "co-IP; HEK293 co-transfected with HALO-NESPRIN3α, GFP-SUN1 and TMX4-V5 or TMX4C67A-V5; immunoisolation from lysates with anti-V5 antibody; non-reducing gel; western blot with anti-V5, anti-HALO and anti-GFP; mixed disulfides"}}, "note": "These are yes or no findings as the source states them, for the method shown. Binding seen in cells or lysates may run through a third protein. Binding calls can cover weak binding; strength is not graded here.", "data": [{"molecule": "TMX4_(C67A)-V5 (from UniProt Q9H1E5) (enzyme)", "values": [{"measurement": "binding", "setting": "HALO-NESPRIN3α", "value": "binds"}]}, {"molecule": "B1", "values": [{"measurement": "binding", "setting": "TMX4_(C67A)-V5", "value": "binds"}]}]}
